Measurements from patent publication US6177557.
For some of these results: Weaker means in comparison with the reference protein, sequence or condition of that experiment. For some of these results: The exact form of at least one protein or probe is not confirmed.

Key:
thrombin (alpha) (human) [1] = experiment: filter binding; conditions: 2'-NH2 pyrimidines, significant drop in binding versus unmodified RNA, purified native protein, protein details: Sigma, Enzyme Research Laboratories, label: …
[2] = target: basic fibroblast growth factor (bFGF) (UniProt P09038); experiment: competition with a labelled probe; conditions: purified recombinant protein, dose not given here
thrombin (alpha) (human) [3] = experiment: inhibition of the protein; conditions: inhibits clotting; purified native protein; protein details: Sigma, Enzyme Research Laboratories; single-stranded DNA; variant of 60-18; dose not given here
[4] = target: basic fibroblast growth factor (bFGF) (UniProt P09038); experiment: activity in cells; conditions: 2'-NH2 pyrimidines; reduced bFGF-induced rat corneal vascular ingrowth (day 14 score 900 vs 1528); purified recombinant protein; dose not given here

## AGAUGCCUGUCGAGCAUGCUGCAUCCGGAUCGAAGUUAGUAGGCCGAGGUGGUAGCUAAACAGCUUUGUCGACGGG [2'-NH2 RNA 16]
Thrombin (alpha) (human) [1]; variant of thrombin Class I RNA 16
  binding result: binds more weakly

## AGAUGCCUGUCGAGCAUGCUGGUGCGGCUUUGGGCGCCGUGCUUGACGUAGCUAAACAGCUUUGUCGACGGG [2'-NH2 RNA 27]
Thrombin (alpha) (human) [1]; variant of thrombin Class II RNA 27
  binding result: binds more weakly

## AGGCCAGGGCTATGCAAATCGCGGCGCCTATGGCC [D12t2]
[2]; inhibits low- and high-affinity receptor binding, nanomolar range, single-stranded DNA, variant of D12
  functional effect of the aptamer: active

## CAGTCCGTGGTAGGGCAGGTTGGGGTGACTTCGTGGAA [60-18(38)]
Thrombin (alpha) (human) [3]
  functional effect of the aptamer: active

## CGAGGAGCTTTAGCGCCACAGGTT [m234t2]
[2]; inhibits low- and high-affinity receptor binding, nanomolar range, single-stranded DNA, variant of m234
  functional effect of the aptamer: active

## GCGGGGCTACGTACCGGGGCTTTGTAAAACCCCGC [M225t3]
[2]; inhibits low- and high-affinity receptor binding, nanomolar range, single-stranded DNA, variant of M225
  functional effect of the aptamer: active

## GCGGGGCTATGTAAATTACTGCTGTACTACGCATC [M19t2]
[2]; inhibits low- and high-affinity receptor binding, nanomolar range, single-stranded DNA, variant of M19
  functional effect of the aptamer: active

## GCGGGGCTCTGCAAAGGACACAGGTCCTACGCATCAG [M235t2]
[2]; inhibits low- and high-affinity receptor binding, nanomolar range, single-stranded DNA, variant of M235
  functional effect of the aptamer: active

## GGGAGACAAGAAUAACGCUCAAGUAGACUAAUGUGUGGAAGACAGCGGGUGGUUCGACAGGAGGCUCACAACAGGC [2'-NH2 21A]
[4]
  functional effect of the aptamer: active

## GGUGUGUGGAAGACAGCGGGUGGUUC [2'-NH2 21A-t]
[2]; 2'-NH2 pyrimidines, most effective inhibitor of bFGF receptor binding, variant of 2'-NH2 21A
  functional effect of the aptamer: active
